# Reference: PubChem BioAssay AID504467 (National Center for Advancing Translational Sciences (NCATS), 2011)
# Screen size: about 330,000 compounds; about 7,700 (2.3%) were called active. This list was built around the results that the source calls inconclusive (neither active nor inactive); the mix of calls is not that of the screen. The call rests on the fitted dose curve; in most records, active means well fitted inhibition curve with a large enough effect; inconclusive means small, poorly fitted or top-dose-only effect, or effect the other way; inactive means flat fitted curve, though single readings scatter. Potencies of inconclusive entries are doubtful fits and often do not repeat.
# Assay: qHTS screen for small molecules that inhibit ELG1-dependent DNA repair in human embryonic kidney (HEK293T) cells expressing luciferase-tagged ELG1; further: nearly all actives have a fitted effect of over 55% in size
# Conditions: HEK293T ELG1-luciferase reporter, luminescence, 16 h, DNA damage induced by 5-fluorouridine; series mostly up to 46.1 µM
# Method in brief: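 Reporter activity after DNA damage by 5-fluorouridine is monitored. Compound-treated cells incubate 16 hr at 37 °C, then ONE-Glo is added for 30 min before luminescence reading.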
# Potency means the concentration at half of the fitted maximal effect.
row,SMILES,Potency
1,Cc1cc(C)cc(NC(=O)N2CCC(c3nc4ccccc4o3)CC2)c1,inactive
2,Cc1ccc(-c2nc(CS(=O)(=O)CC(=O)N3CCCCCC3)c(C)o2)cc1,"inconclusive: 14.6 µM [inhibitor, partial curve]"
3,CS(=O)(=O)c1ccc(-c2cccc(NC(=O)COc3ccc(Cl)cc3)c2)nn1,"inconclusive: 16.4 µM [activator, single point]"
4,COc1cccc(C(=O)Nc2cccc(SC)c2)c1,"inconclusive: 10.3 µM [activator, partial curve]"
5,COc1ccc(/C=C/C(=O)c2cc(Br)ccc2OC(=O)c2ccco2)cc1OC,"inconclusive: 16.4 µM [inhibitor, single point]"
6,COc1ccc(C(=O)N2CCN(C)C(=O)[C@@H]2C)cc1OC1CCN(C(C)=O)CC1,"inconclusive: 25.9 µM [activator, partial curve, poor fit]"
7,O=C(NCCc1nnc2ccc(SCC(=O)N3CCCC3)nn12)c1ccc(F)cc1,inactive
8,Cc1cc(=O)[nH]c(SCC(=O)Nc2ccc(Cl)cn2)n1,inactive
9,COc1cccc(NC(=O)CN(C)C(=O)CSc2ncnc3sc(C)c(C)c23)c1,"inconclusive: 35.5 µM [inhibitor, single point]"
10,Cc1sc2nc(CN3CCOCC3)nc(NCCc3ccccc3)c2c1C,"inconclusive: 23.1 µM [inhibitor, single point]"
11,O=C(CNc1ccccc1)N/N=C/c1c(O)ccc2ccccc12,"inconclusive: 5.8 µM [inhibitor, partial curve]"
12,CSc1nnc([C@H](Cc2c[nH]c3ccccc23)NC(=O)OC(C)(C)C)o1,"inconclusive: 16.4 µM [activator, single point]"
13,Cc1cc2[nH]c(=O)c(=O)[nH]c2cc1S(=O)(=O)Nc1ccccc1F,inactive
14,COc1ccc(-c2cc(C(F)(F)F)nc(SCC(=O)NCc3cccs3)n2)cc1OC,"inconclusive: 20.6 µM [inhibitor, partial curve]"
15,S=c1[nH]nc(COc2ccc(Cl)cc2)n1-c1ccccc1,inactive
16,C=CCSC1=NNC(c2ccc(C(C)(C)C)cc2)=NN1,"inconclusive: 20.6 µM [activator, partial curve]"
17,COc1ccc(C(C)=O)cc1CSc1nnc(Nc2ccccc2C)s1,"inconclusive: 29.1 µM [inhibitor, single point]"
18,CCOC(=O)c1cc(-c2ccccc2)sc1NC(=O)COC(=O)c1cccc(S(N)(=O)=O)c1,inactive
19,COc1cc(OC)cc(C(=O)N=c2sc3ccccc3n2C)c1,"inconclusive: 3.66 µM [activator, single point]"
20,COc1ccc(NC(=O)C2CCCN2S(=O)(=O)c2ccc3c(c2)CCC(=O)N3)c(OC)c1 (stereo not drawn),inactive
21,COC(=O)c1ccc(COc2ccccc2/C=C(\C#N)C(=O)Nc2c(C)cc(C)cc2C)cc1,"inconclusive: 3.66 µM [inhibitor, partial curve, poor fit]"
22,CCOc1cccc(-c2csc(C3COc4ccccc4O3)n2)c1 (stereo not drawn),"inconclusive: 13 µM [activator, partial curve]"
23,CN(C)C(=O)N1CCCC(C(=O)NCc2ccccc2)C1 (stereo not drawn),inactive

# Quoted from the listing:
# For Potency, CSc1nnc([C@H](Cc2c[nH]c3ccccc23)NC(=O)OC(C)(C)C)o1 is entered as inconclusive: 16.4 µM [activator, single point]
# For Potency, COc1cccc(C(=O)Nc2cccc(SC)c2)c1 is entered as inconclusive: 10.3 µM [activator, partial curve]
# For Potency, COc1ccc(C(=O)N2CCN(C)C(=O)[C@@H]2C)cc1OC1CCN(C(C)=O)CC1 is entered as inconclusive: 25.9 µM [activator, partial curve, poor fit]

# Further entries.

row,SMILES,Potency
1,CC(C)CNC(=O)COc1ccccc1[N+](=O)[O-],"inconclusive: 29.1 µM [activator, single point]"
2,CN(C[C@H](Cc1ccccc1)N(C[C@H](CC1CCCCC1)N(CCc1ccccc1)N=O)N=O)N=O,inactive
3,COc1ccc(-c2cc3nc(C)cc(N4CC(C)CC(C)C4)n3n2)cc1 (stereo not drawn),"inconclusive: 25.9 µM [inhibitor, single point]"
4,Cc1ccc(Cn2nnc3c(=O)n(CC(=O)NCc4ccc5c(c4)OCO5)cnc32)cc1,"inconclusive: 25.9 µM [inhibitor, partial curve, poor fit]"
5,Clc1ccc(-c2csc(-c3ccncc3)n2)cc1,"inconclusive: 20.6 µM [activator, partial curve]"
6,CC(C)c1ccc(OCC(=O)N(Cc2ccccc2)c2ccccn2)cc1,inactive
7,COc1cccc(NC(=O)NC2CCN(Cc3nnnn3Cc3ccc4c(c3)OCO4)CC2)c1,"inconclusive: 18.3 µM [inhibitor, single point]"
8,C=CCOC(=O)c1sc(NC(=O)c2ccc(OC)cc2)nc1C,"inconclusive: 5.17 µM [activator, full curve, poor fit]"
9,CCN(CC)c1ccc(NC(=O)C2CC3CCC2C3)cc1 (stereo not drawn),"inconclusive: 35.5 µM [activator, single point]"
10,NC(Cc1c[nH]c2ccccc12)C(=O)NCc1ccccc1 (stereo not drawn),inactive
11,COc1ccc(-n2nc(C(=O)NCC(=O)Nc3ccccn3)c3ccccc3c2=O)cc1,inactive
12,COc1cc([N+](=O)[O-])ccc1NC(=O)CSc1n[nH]c(C(C)C)n1,"inconclusive: 18.3 µM [inhibitor, partial curve]"
13,COC(=O)C1=CN(CCOC23CC4CC(CC(C4)C2)C3)C=C(C(=O)OC)C1c1ccsc1,"inconclusive: 20.6 µM [inhibitor, single point]"
14,COc1ccccc1-c1cc(C(F)(F)F)nc(S(=O)(=O)CCCC(=O)Nc2cc(C)on2)n1,"inconclusive: 29.1 µM [inhibitor, single point]"
15,Cc1ccc(NC(=S)N(CCN(C)C)C(C)c2ccco2)cc1Cl (stereo not drawn),inactive
16,COc1ccccc1-c1cc(C(=O)Nc2sc3c(c2C#N)CCC(C)C3)c2ccccc2n1 (stereo not drawn),inactive
17,CCCCN(Cc1cc2cc(OC)ccc2[nH]c1=O)C(=O)c1ccco1,inactive
18,S=C(Nc1ccc(Oc2ccccc2)cc1)N1CCN(c2ccccn2)CC1,"inconclusive: 32.6 µM [inhibitor, single point]"
19,CCOC(=O)C1CCN(Cc2c(F)cccc2Cl)CC1,inactive
20,CN(CC(=O)Nc1ccc(N2CCOCC2)cc1)CC(=O)Nc1ccccc1C#N,inactive
21,COc1ccccc1C(=O)NC(=S)Nc1ccccc1N1CCCC1,"inconclusive: 13 µM [activator, partial curve]"
22,Cc1ccc(C(=O)NNS(=O)(=O)c2ccc(F)cc2)cc1,"inconclusive: 29.1 µM [activator, single point]"
23,COCc1nc2ccccc2n1Cc1cccc(C)c1,inactive

row,SMILES,Potency
1,CCC(=O)Nc1ccc(C(=O)Nc2ccc3c(c2)OCO3)cc1,"inconclusive: 0.92 µM [activator, full curve, poor fit]"
2,CN(C)c1ccc(/C=C(\C#N)C(=O)c2ccccc2)cc1,inactive
3,O=C(COC(=O)CC(c1ccccc1)c1ccccc1)Nc1c(F)cccc1F,"inconclusive: 16.4 µM [inhibitor, single point]"
4,CCOc1ccc2ccccc2c1/C=N\NC(=O)OC,inactive
5,COc1ccc(-c2nc3ccccc3c(=O)n2CCc2ccc(O)cc2)cc1,"inconclusive: 20.6 µM [inhibitor, single point]"
6,CCc1ccc(NC(=O)NCC2CCN(c3ccc(OC)cc3)C2)cc1 (stereo not drawn),inactive
7,Cc1cc(C)cc(OC(C)C(=O)Nc2ccc(S(=O)(=O)Nc3cc(C)nc(C)n3)cc2)c1 (stereo not drawn),inactive
8,O=C(Oc1cccc(-n2cnnn2)c1)c1sc2ccccc2c1Cl,"inconclusive: 6.51 µM [activator, partial curve, poor fit]"
9,CCOc1cc2[nH]c(=S)n(C(C)C)c(=O)c2cc1OCC,"inconclusive: 20.6 µM [inhibitor, single point]"
10,Cc1ccc(C)c(S(=O)(=O)N2CCN(C(=O)C3CCN(c4ncnc5sc(C)c(C)c45)CC3)CC2)c1,"inconclusive: 23.1 µM [inhibitor, single point]"
11,CCOC(=O)c1sc2ncnc(N3CCN(c4ccc(OC)cc4)CC3)c2c1C,"inconclusive: 18.4 µM [inhibitor, partial curve, poor fit]"
12,CCc1cc(=O)oc2c3c(cc(OCC(=O)NCCN4CCOCC4)c12)OC(C)(C)CC3,"inconclusive: 0.231 µM [inhibitor, single point]"
13,CCOc1ccc(C2/C(=C(\O)c3ccc4c(c3)OCCO4)C(=O)C(=O)N2Cc2cccnc2)cc1OCC (stereo not drawn),"inconclusive: 16.4 µM [activator, partial curve, poor fit]"
14,O=C(NCCc1ccccn1)c1cncc(Br)c1,"inconclusive: 6.51 µM [inhibitor, single point]"
15,O=C(CCc1ccccc1)NC(=S)Nc1cc(C(F)(F)F)ccc1N1CCOCC1,inactive
16,COc1cc(-c2nc3oc4ccccc4c(=O)c3c(=O)n2Cc2ccco2)cc(OC)c1OC,"inconclusive: 20.6 µM [inhibitor, partial curve]"
17,C=CCn1c(SCC(=O)Nc2ccc3c(c2)OCO3)nnc1-c1ccccc1OC,"inconclusive: 14.6 µM [inhibitor, partial curve, poor fit]"
18,CN(C(=O)c1ccc(Br)o1)C1CCCCC1,"inconclusive: 23.1 µM [activator, single point]"
19,Cc1ccc(-c2csc(-c3c[nH]c4ccccc34)n2)cc1,"inconclusive: 16.4 µM [activator, partial curve]"
20,CCC(=O)N1CC2(CC(c3cccc(NC(=O)CC(c4ccccc4)c4ccccc4)c3)=NO2)C[C@H]1C(N)=O (stereo partly drawn),"inconclusive: 29.1 µM [activator, single point]"
21,C/C(=C\c1ccc(Cl)cc1)C(=O)c1c(C)cc(C)[nH]c1=O,"inconclusive: 25.9 µM [inhibitor, partial curve, poor fit]"
22,Cc1cccc(NC(=O)CCc2c(C)nn(-c3ccc(N4CCOCC4)nn3)c2C)c1,"inconclusive: 10.3 µM [activator, partial curve, poor fit]"
